Laboratory results: PubChem BioAssay AID1224826 (NIAID, 2016)
Aim: 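Knock-downs that raise or lower Tnf reporter signal after endotoxin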 (primary screen). System: RAW264.7 G9 macrophages from mouse bearing reporters for p65 (GFP) and the Tnf promoter (mCherry). Reagents: siRNA pool against mouse genes, 100 nM. Duration: 16 h of LPS stimulation, after 2 days of siRNA transfection. Treatment: bacterial lipopolysaccharide (Salmonella minnesota R595), 10 ng/ml. Read-out: 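Imaged Tnf reporter mCherry in nuclei, minus background, normalised per plate to the median and expressed as robust z-scores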. Scale: Tnf reporter robust z-score: higher = stronger Tnf promoter reporter signal after LPS; Tnf reporter intensity: higher = stronger Tnf promoter reporter signal. Rule for the call: 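Called active when robust z-score is at most -1.3, matching the median of the Tlr4 knock-down control, or over 3; control wells and wells with under 50 cells never active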. Calls: active = Tnf reporter clearly lowered or raised; inactive = no clear change in Tnf reporter.
In all, the deposit lists about 17,000 reagents; shown is a random part of them. About 1,110 of all reagents (6.6%) were called active. 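Active means lowered or raised reporter signal; replicate intensities are raw and not normalised per plate.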 A reagent listed more than once was tested more than once; the source does not tell the runs apart. No sequences are given here.

| gene symbol | PubChem SID | Tnf reporter robust z-score | fewer than 50 cells in well | Tnf reporter intensity, replicate 1 | Tnf reporter intensity, replicate 2 | activity call |
| --- | --- | --- | --- | --- | --- | --- |
| Ubap2l (GeneID 74383) | SID315474958 | – | fewer than 50 cells per well; well left out of calls | 215 | 63.4 | inactive |
| Zfp599 (GeneID 235048) | SID315479223 | 0.51 | enough cells in well | 142 | 174 | inactive |
| Cbx4 (GeneID 12418) | SID315465805 | 1.19 | enough cells in well | 401 | 238 | inactive |
| Sema4a (GeneID 20351) | SID315469177 | -1.05 | enough cells in well | 67.2 | 113 | inactive |
| Fam114a2 (GeneID 67726) | SID315473193 | – | fewer than 50 cells per well; well left out of calls | 86.9 | 38.4 | inactive |
| Rbm15 (GeneID 229700) | SID315478732 | 0.1 | enough cells in well | 350 | 192 | inactive |
| Cep250 (GeneID 16328) | SID315467479 | -0.99 | enough cells in well | 169 | 134 | inactive |
| Slc7a13 (GeneID 74087) | SID315474836 | -0.19 | enough cells in well | 114 | 74.7 | inactive |
| Ugcg (GeneID 22234) | SID315469926 | 0.02 | enough cells in well | 242 | 218 | inactive |
| Hexb (GeneID 15212) | SID315467186 | -0.49 | enough cells in well | 234 | 126 | inactive |
| Gzmk (GeneID 14945) | SID315467096 | 0.9 | enough cells in well | 361 | 186 | inactive |
| Crtam (GeneID 54698) | SID315471292 | 1.21 | enough cells in well | 346 | 270 | inactive |
| Kars1 (GeneID 85305) | SID315475907 | -0.19 | enough cells in well | 197 | 111 | inactive |
| Yipf2 (GeneID 74766) | SID315475043 | 0.91 | enough cells in well | 375 | 92.1 | inactive |
| Peg12 (GeneID 27412) | SID315470620 | -0.52 | enough cells in well | 124 | 87 | inactive |
| Mrpl50 (GeneID 28028) | SID315470661 | 0.53 | enough cells in well | 167 | 180 | inactive |
| Strada (GeneID 72149) | SID315474475 | 0.71 | enough cells in well | 243 | 196 | inactive |
| Strada (GeneID 72149) | SID315474475 | -0.14 | enough cells in well | 237 | 64 | inactive |
| Rad18 (GeneID 58186) | SID315471862 | 0.32 | enough cells in well | 349 | 223 | inactive |

A few values from the entries so far:
For “Tnf reporter intensity, replicate 1”, Mrpl50 (GeneID 28028) [SID315470661] is entered as 167
Kars1 (GeneID 85305) [SID315475907], Tnf reporter robust z-score: -0.19
Value of Ugcg (GeneID 22234) [SID315469926] in “activity call”: inactive
Under “fewer than 50 cells in well”, Fam114a2 (GeneID 67726) [SID315473193] has fewer than 50 cells per well; well left out of calls
Ubap2l (GeneID 74383) [SID315474958], Tnf reporter intensity, replicate 2: 63.4

Continued.
| gene symbol | PubChem SID | Tnf reporter robust z-score | fewer than 50 cells in well | Tnf reporter intensity, replicate 1 | Tnf reporter intensity, replicate 2 | activity call |
| --- | --- | --- | --- | --- | --- | --- |
| Traf6 (GeneID 22034) | SID315469820 | -0.85 | enough cells in well | 166 | 160 | inactive |
| Cpped1 (GeneID 223978) | SID315478309 | -0.73 | enough cells in well | 81.5 | 127 | inactive |
| Nid2 (GeneID 18074) | SID315468175 | -1.24 | enough cells in well | 126 | 117 | inactive |
| Mup4 (GeneID 17843) | SID315468036 | -1.02 | enough cells in well | 173 | 55.9 | inactive |
| H2bc1 (GeneID 319177) | SID315481042 | -0.74 | enough cells in well | 198 | 114 | inactive |
| Blcap (GeneID 53619) | SID315471094 | 0.89 | enough cells in well | 140 | 279 | inactive |
| Rpl9 (GeneID 20005) | SID315469024 | – | fewer than 50 cells per well; well left out of calls | 85.5 | 72 | inactive |
| Tnrc18 (GeneID 231861) | SID315478938 | 0.24 | enough cells in well | 233 | 266 | inactive |
| Mylpf (GeneID 17907) | SID315468070 | -0.45 | enough cells in well | 227 | 70.6 | inactive |
| Nans (GeneID 94181) | SID315476045 | 0.41 | enough cells in well | 246 | 80.7 | inactive |
| Or51a43 (GeneID 259125) | SID315480717 | 2.8 | enough cells in well | 177 | 247 | inactive |
| Or1j15 (GeneID 258621) | SID315480279 | -0.89 | enough cells in well | 133 | 79.6 | inactive |
| Lrrc45 (GeneID 217366) | SID315478118 | 1.58 | enough cells in well | 315 | 320 | inactive |
| Rbm38 (GeneID 56190) | SID315471388 | -0.86 | enough cells in well | 83.6 | 98.2 | inactive |
| Usp53 (GeneID 99526) | SID315468501 | 0.93 | enough cells in well | 222 | 147 | inactive |
| Usp53 (GeneID 99526) | SID315476183 | -0.74 | enough cells in well | 143 | 99.3 | inactive |
| Setdb1 (GeneID 84505) | SID315475897 | -0.63 | enough cells in well | 253 | 141 | inactive |
| Hrh3 (GeneID 99296) | SID315476170 | 0.16 | enough cells in well | 214 | 334 | inactive |
| Nop2 (GeneID 110109) | SID315476874 | -0.69 | enough cells in well | 227 | 107 | inactive |
| Srf (GeneID 20807) | SID315469462 | 0 | enough cells in well | 263 | 229 | inactive |
| Sult1e1 (GeneID 20860) | SID315469493 | 0.34 | enough cells in well | 319 | 233 | inactive |
